# In PubChem BioAssay AID504444 (National Center for Advancing Translational Sciences (NCATS), 2011):
# About 7,500 (2.1%) of roughly 360,000 compounds were called active. The shares of active, inactive and inconclusive entries below differ from those in the screen. Calls follow the shape of the dose curve; as a rule, active = well fitted inhibition curve with a large enough effect; inconclusive = small, poorly fitted or top-dose-only effect, or effect the other way; inactive = flat fitted curve, though single readings scatter. Potencies beside an inconclusive call are fits to weak or partial responses and may not hold up.
# Assay: Nrf2 qHTS screen for inhibitors; also: nearly all actives have a fitted effect of over 60% in size
# Details: A549 ARE-Fluc reporter, luciferase luminescence, 18-24 h; activity change, negative = inhibition: at 46 µM (top of the series)
# Procedure, shortened: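 Two sequential reads on A549 ARE_Fluc cells exposed to compound for 18-24 h: a CellTiter-Fluor fluorescence read for viability, then a luciferase luminescence read for Nrf2/ARE activity.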
# % is scaled to controls: 0 for no effect and ±100 for the full control effect; potency is read from the fitted curve at half-maximal effect.
SMILES,Potency,"activity change, negative = inhibition"
CCOC(=O)c1cc(-c2ccc(C)cc2)nn1Cc1ccccc1,"inconclusive: 29.1 µM [activator, single point]",–
COc1ccc(C(=O)Nc2cccc(/C(C)=N/NC(=O)c3ccc([N+](=O)[O-])c(C)c3)c2)cc1OC,"inconclusive: 29.1 µM [falling, single point]",–
O=[N+]([O-])c1ccc(N2CCN(Cc3ccccc3)CC2)s1,–,inactive: -10.8%
COc1ccc(C(=O)Cc2cc(OC)c(OC)cc2C(=O)c2ccccc2F)cc1OC,"inconclusive: 20.6 µM [falling, partial curve]",–
COc1ccc(S(=O)(=O)N2CCOC2CNC(=O)C(=O)NCCc2ccc(OC)c(OC)c2)cc1C (configuration not stated),"inconclusive: 20.6 µM [falling, single point]",–
COc1ccc(Cl)cc1NC(=O)CN(c1cc(C)cc(C)c1)S(=O)(=O)c1c(C)n[nH]c1C,"inconclusive: 20.6 µM [falling, single point]",–
Cc1ccc(S(=O)(=O)N2CCC(C(=O)Nc3ccccc3N3CCCC3)CC2)cc1C,–,inactive: 2.24%
CC(C)N(C(=O)CSc1nc2ccccc2c(=O)[nH]1)C(C)C,"inconclusive: 9.2 µM [falling, partial curve, poor fit]",–
O=C(Cc1ccccc1)N1CCCC(c2nc(-c3ccc(S(=O)(=O)N4CCCC4)cc3)no2)C1 (configuration not stated),"inconclusive: 16.4 µM [falling, partial curve, poor fit]",–
O=[N+]([O-])c1cccc(-c2nnn(C34CC5CC(CC(C5)C3)C4)n2)c1,"inconclusive: 2.59 µM [activator, full curve]",–
Cc1cccc(NC(=O)Nc2ccc(C#N)cc2)n1,"inconclusive: 4.11 µM [falling, partial curve, poor fit]",–
CC(=O)CSc1ncnc2c1cnn2-c1ccccc1,"inconclusive: 1.03 µM [activator, full curve, poor fit]",–
COc1cccc(CN(C)C(=O)c2ccc(Oc3ccccc3)cc2)c1OC,"inconclusive: 29.1 µM [falling, single point]",–
COc1cc(C)ccc1OCc1cc(C(=O)N(C)CCCN2CCOCC2)no1,"inconclusive: 14.6 µM [activator, partial curve]",–
O=C(Cn1cnc2ccccc21)c1ccc(Br)cc1,"inconclusive: 10.3 µM [activator, partial curve, poor fit]",–
CCC(=O)Nc1nnc(S(=O)(=O)N(C)Cc2ccco2)s1,–,inactive: -1.78%
Cc1cc(=O)[nH]c(SCc2csc(-c3ccccc3)n2)n1,–,inactive: 6.15%
COc1ccc(OCC#CCNC(C)(C)C)cc1,–,inactive: -2.61%
Cc1ccc(CNc2ccc(-c3nc(-c4ccco4)no3)cc2[N+](=O)[O-])cc1,"inconclusive: 0.13 µM [activator, full curve, poor fit]",–
Cc1cc2c(s1)c1cnn(Cc3cccc(Cn4ncc5c6sc(C)cc6n(C)c5c4=O)c3F)c(=O)c1n2C,–,inactive: -3.41%
COc1c(C)oc2cc(O)ccc2c1=O,–,inactive: -10.3%
COc1ccc(NC(=O)CNC(=O)c2ccco2)cc1,"inconclusive: 29.1 µM [activator, single point]",–
COc1ccccc1NC(=O)c1ccc2c(=O)n3c(nc2c1)CCC3,"inconclusive: 13 µM [activator, partial curve]",–

# Entries of single compounds, quoted from the list. Values in the order: Potency | activity change, negative = inhibition
# `Cc1cccc(NC(=O)Nc2ccc(C#N)cc2)n1` as listed: inconclusive: 4.11 µM [falling, partial curve, poor fit] | –
# `Cc1ccc(S(=O)(=O)N2CCC(C(=O)Nc3ccccc3N3CCCC3)CC2)cc1C` as listed: – | inactive: 2.24%
# `COc1ccc(C(=O)Nc2cccc(/C(C)=N/NC(=O)c3ccc([N+](=O)[O-])c(C)c3)c2)cc1OC` as listed: inconclusive: 29.1 µM [falling, single point] | –
# `COc1cc(C)ccc1OCc1cc(C(=O)N(C)CCCN2CCOCC2)no1` as listed: inconclusive: 14.6 µM [activator, partial curve] | –

# (further entries)

SMILES,Potency,"activity change, negative = inhibition"
Cc1ccc(S(=O)(=O)N2CCN(Cc3cc4c(cc3Br)OCCO4)CC2)cc1,"inconclusive: 18.4 µM [falling, partial curve, poor fit]",–
Cc1cc(NC(=O)c2cnn3c(C(F)(F)F)cc(-c4ccccc4)nc23)no1,–,inactive: -17.4%
C[C@@H](NC(=O)c1[nH]cnc1C(=O)Nc1ccccc1)c1ccccc1,active: 23.1 µM,–
COC(=O)[C@@]1(Cc2ccc(OC)cc2)[C@@H]2C(=CC(=O)[C@H]2CC(=O)C(=O)N(C)C)CN1C(=O)c1ccccc1,"inconclusive: 18.4 µM [falling, partial curve, poor fit]",–
CN(C)S(=O)(=O)c1cc(NC(=O)CSc2nn(-c3ccc(Cl)cc3)c(=S)s2)ccc1Cl,"inconclusive: 29.1 µM [falling, single point]",–
Fc1ccc(Nc2nnc(C(F)(F)F)s2)cc1Cl,"inconclusive: 18.4 µM [falling, single point]",–
O=C(/C=C/c1ccc(Br)cc1)NC1CCCCCC1,–,inactive: 17.2%
O=C(Nc1ccccn1)c1ccc(NC(=O)c2ccco2)cc1,"inconclusive: 2.59 µM [activator, partial curve, poor fit]",–
CN(C)C(=O)/C=C\c1cn(-c2ccccc2)nc1-c1ccc2c(c1)OCCO2,"inconclusive: 18.4 µM [falling, partial curve, poor fit]",–
Cc1cc(C)c2nc(N3CCN(C)CC3)c(C#N)cc2c1,"inconclusive: 32.6 µM [activator, partial curve, poor fit]",–
COc1ccc(C)cc1N(C)C(=O)Cc1c(C(=O)O)n(C)c2ccccc12,–,inactive: 3.31%
CCc1ccc(N2CCn3c2nc2c3c(=O)n(Cc3ccc(F)cc3)c(=O)n2C)cc1,"inconclusive: 14.6 µM [falling, partial curve]",–
O=C1COc2cc(S(=O)(=O)CCC(=O)N3CCN(c4cccc(Cl)c4)CC3)c(Cl)cc2N1,–,inactive: -7.96%
Cc1cc(OCCN2CCOCC2)ccc1C(C)C,"inconclusive: 29.1 µM [activator, single point]",–
COc1ccc(-c2nc(CSCC(=O)NC3CCN(Cc4ccccc4)CC3)c(C)o2)cc1OC,–,inactive: 4.07%
CCOc1ccc(C(CCc2ccccc2)NC(=O)c2ccccc2OC)cc1OCC (configuration not stated),"inconclusive: 32.6 µM [falling, single point]",–
COC(=O)c1ccc(CNC(=O)COC(=O)/C=C/c2ccc(O)c(OC)c2)cc1,–,inactive: 20%
O=C(c1ccc2nc(Cc3cccc(Cl)c3)oc2c1)N1CCOCC1,"inconclusive: 14.6 µM [activator, partial curve, poor fit]",–
CNC(=S)N(CCc1c(C)[nH]c2ccccc12)Cc1cccnc1,–,inactive: -7.03%
Fc1ccc2[nH]c3c(NCc4ccco4)ncnc3c2c1,active: 11.6 µM,–
Cc1ccc(C)c(S(=O)(=O)N2CCC3(CC2)OCCN3S(=O)(=O)c2cccs2)c1,"inconclusive: 23.1 µM [falling, partial curve]",–
O=C(N/N=C/c1c[nH]c2ccc(Br)cc12)c1ccn(Cc2ccc(Cl)cc2)n1,"inconclusive: 29.1 µM [falling, single point]",–
Cc1nn(CC(=O)NCCc2ccccc2Cl)c(=O)c2nn(-c3ccccc3)c(C)c12,"inconclusive: 29.1 µM [activator, single point]",–

SMILES,Potency,"activity change, negative = inhibition"
O=C(CC1NCCc2ccccc21)Nc1ccccc1Cl (configuration not stated),"inconclusive: 20.6 µM [activator, single point]",–
COc1ccccc1Nc1ccc(S(=O)(=O)N2CCCCC2)cc1[N+](=O)[O-],"inconclusive: 32.6 µM [falling, single point]",–
COCCn1c(SCC(=O)Nc2ccc(NC(=O)c3ccco3)c(OC)c2)nc2ccccc2c1=O,"inconclusive: 1.3 µM [falling, full curve]",–
COc1ccc(S(=O)(=O)n2ccc(-c3ccc(OCCN(C)c4ccccn4)cc3)n2)cc1,"inconclusive: 7.31 µM [falling, partial curve]",–
Cc1ccc(/C=C/C(=O)OCC(=O)N2CC(=O)Nc3ccccc32)o1,"inconclusive: 29.1 µM [falling, single point]",–
Cc1cccc(C(=O)N2c3ccccc3C(=O)OC2c2ccc3c(c2)OCO3)c1 (configuration not stated),"inconclusive: 9.2 µM [activator, partial curve]",–
Cc1nn(CC2CCCCC2)c(N)c1-c1ccccc1,"inconclusive: 5.17 µM [activator, partial curve]",–
Cc1ccc(C)c(NS(=O)(=O)c2ccc(NC(=O)c3ccco3)cc2)c1,"inconclusive: 29.1 µM [falling, single point]",–
CCOc1ccc(S(=O)(=O)N(CC(=O)N/N=C/c2cccs2)c2ccc(C)cc2)cc1,–,inactive: -29.7%
Cc1cccc(Nc2nc(N)c([N+](=O)[O-])c(N3CC(C)CC(C)C3)n2)c1 (configuration not stated),active: 16.4 µM,–
O=C(Nc1ccc(N2CCCCC2)c(Cl)c1)c1ncn[nH]1,active: 8.2 µM,–
CCOc1ccc(NS(=O)(=O)c2ccc(C(=O)NCc3cccnc3)cc2)cc1,"inconclusive: 23.1 µM [falling, partial curve]",–
O=C(N/N=C/c1ccc(O)c(O)c1)C1CC1,"inconclusive: 7.31 µM [activator, partial curve]",–
NC(=S)Nc1cc(Cl)ccc1Cl,"inconclusive: 6.51 µM [falling, full curve, poor fit]",–
COc1ccccc1C(=O)N1CCN(c2nc3cc(C)c(C)cc3cc2C#N)CC1,active: 23.1 µM,–
O=C(Nc1nc2ccccc2s1)NC1CCCCC1,"inconclusive: 7.31 µM [activator, partial curve]",–
CCOc1ccc(OCCC(=O)Nc2cccc(S(=O)(=O)N3CCCC3)c2)cc1,"inconclusive: 23.1 µM [falling, single point]",–
Cc1ccc(NC(=O)C(Cc2ccccc2)N2C(=O)C3C4CCC(C4)C3C2=O)cc1Cl (configuration not stated),"inconclusive: 16.4 µM [falling, partial curve]",–
Cc1ccc(Nc2nnc(-c3ccc4c(c3)OCO4)o2)c(C)c1,"inconclusive: 8.2 µM [activator, partial curve]",–
CN(Cc1ccc(OCC(O)CN2CCCCC2)cc1)Cc1ccnc2ccccc12 (configuration not stated),active: 5.8 µM,–
COc1ccc(C(=O)n2nc(-c3ccc(Cl)cc3)nc2N)cc1OC,"inconclusive: 2.06 µM [falling, partial curve]",–
